## Percent effect of library compounds

Chains of the proteins cited; added tags and fusions are not shown. Residues count along the entry.
UniProt Q8IDJ8, 1-583: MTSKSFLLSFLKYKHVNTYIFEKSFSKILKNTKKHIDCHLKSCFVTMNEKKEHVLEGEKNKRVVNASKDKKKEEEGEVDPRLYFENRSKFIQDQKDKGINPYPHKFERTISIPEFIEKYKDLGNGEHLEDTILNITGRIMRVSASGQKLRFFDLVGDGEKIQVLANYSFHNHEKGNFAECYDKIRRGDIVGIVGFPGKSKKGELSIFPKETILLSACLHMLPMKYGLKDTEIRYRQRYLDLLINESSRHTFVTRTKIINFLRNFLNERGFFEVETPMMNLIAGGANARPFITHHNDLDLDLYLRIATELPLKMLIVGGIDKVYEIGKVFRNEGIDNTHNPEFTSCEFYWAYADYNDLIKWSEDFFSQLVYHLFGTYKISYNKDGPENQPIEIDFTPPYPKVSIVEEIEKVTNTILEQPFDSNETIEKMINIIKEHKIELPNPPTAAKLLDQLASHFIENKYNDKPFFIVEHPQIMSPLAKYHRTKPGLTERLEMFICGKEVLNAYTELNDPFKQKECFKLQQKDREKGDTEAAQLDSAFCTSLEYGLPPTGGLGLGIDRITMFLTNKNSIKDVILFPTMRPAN

Measurements from “University of Dundee, Small-Polar-MMV Screening Library” (2021), ChEMBL document CHEMBL3988442.

Toxoplasma: 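Assay of Toxoplasma gondii numbers, read through their beta-galactosidase reporter with a colour substrate. Tested at 10 µM. The record gives no direction; the compounds picked for IC50 retests had high values, so higher reads as fewer parasites. Of about 67,000 compounds tested this way, about 260 (0.38%) reached 50% or more in at least one test.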
T. brucei: 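Whole-parasite assay of Trypanosoma brucei over 72 hours; the read-out is not stated. Concentration: 30 µM. Higher reads as stronger inhibition (inferred: compounds with an IC50 in retests scored well above the rest). Values scatter widely below zero; nearly all retest evidence comes from the higher of the two concentrations used. Of about 64,000 compounds tested this way, about 940 (1.5%) reached 50% or more in at least one test.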
Leishmania in macrophages: 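Cell assay of Leishmania donovani living inside macrophages; the read-out is not stated. Compounds at 30 µM. The record gives no direction; compounds that gave an IC50 in retests scored well above the rest, so higher reads as stronger inhibition. Size under these conditions: about 69,000 compounds, about 1,000 of them at 50% or above in at least one test.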
PfKRS1: 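Enzyme assay of the cytosolic lysyl-tRNA synthetase in 384-well plates, read by luminescence. Target: Lysine-tRNA ligase, Plasmodium falciparum 3D7 (UniProt Q8IDJ8). Tested at 30 µM. Higher reads as stronger inhibition, judged from the few compounds that gave an IC50. Of about 69,000 compounds tested this way, about 49 (0.071%) reached 50% or more in at least one test.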

The filed quantity is “Percent Effect” (%).
The record does not define 0% and 100%; most values in the screen are far below 50% and negative numbers occur (in some assays of this library far below -100).
Compounds were drawn at random from those tested, without regard to their results.
A dash means the value is not listed here; it may have been measured.

structure,Toxoplasma,T. brucei,Leishmania in macrophages,PfKRS1
Cc1cc(N(C)C)nc(C2CCNC2)n1.Cl.Cl (stereo not given),-18.6%,-,-27.22%,-
COC(=O)CCN(C)C(=O)c1csc(Cc2ccccc2F)n1,21.73%,-48.33%,0.2786%,-0.8875%
CCN(C)c1ncnc2c1CCN(C(=O)c1ccno1)CC2,2.35%,-30.35%,-17.22%,4.983%
CNS(=O)(=O)c1cc(C(=O)N2CCCCCC2CC(C)C)co1 (stereo not given),-1.427%,-7.887%,-17.83%,7.533%
COc1ncccc1CNC(=O)N1CCC(CN2CCOCC2)CC1,15.66%,-15.57%,15.19%,-4.484%
CC1CN(Cc2ccc(-n3cccn3)cc2)CCO1 (stereo not given),3.37%,-,33.45%,2.565%
CN(Cc1nnnn1C1CC1)CC1COc2ccccc2O1 (stereo not given),-16.05%,-92.27%,4.21%,5.834%
O=C1C(NCc2nnc3n2CCCC3)CCCN1c1cccc(F)c1 (stereo not given),-24.44%,-9.708%,20.25%,0.1876%
COc1ccc(Cn2cc(C(C)O)nn2)cc1 (stereo not given),9.271%,-,-0.6103%,-4.642%
CC(=O)NCc1nnn2c1CN(c1ncccn1)CCC2,-2.903%,3.788%,37.26%,3.08%
CN(C)CC1(O)CCN(C(=O)c2cnc(-c3cccnc3)nc2)C1 (stereo not given),0.05596%,-16.37%,6.927%,2.36%
Cc1ccc(C)c(OCC(O)CN(C)CC(=O)Nc2cc(C)on2)c1 (stereo not given),3.279%,-17.47%,2.943%,2.406%
O=S1(=O)CCN(c2nc(C3CC3)ns2)CC1,4.549%,-61.47%,-31%,1.78%
Cc1cc2nc(CN(C)c3ccc(Cl)cc3)cc(=O)n2o1,15.38%,-,-38.2%,0.05023%
N#Cc1cccc(S(=O)(=O)NC(=O)COc2ccc3c(c2)CCC3)c1,-3.684%,-20.93%,12.78%,3.587%
Cc1ccc(C(=O)NCC(c2cnn(C)c2)N(C)C)c(O)c1 (stereo not given),-25.46%,-12.56%,-22.67%,3.516%
CC(CN1CCOC1=O)NC(=O)c1cccc2cc[nH]c12 (stereo not given),0.3211%,-21.59%,-3.131%,3.844%
Cc1noc(C)c1CNCC1CNc2ccnn2C1 (stereo not given),14.71%,-58.41%,-21.49%,8.73%
Cc1noc(C)c1CNC(=O)Nc1ccc(N2CCSCC2)cc1,-16.83%,-9.25%,0.1908%,-0.2017%
Cc1cc(C)cc(N2CCN(Cc3cccc(CCN)c3)CC2=O)c1,4.554%,-7.925%,5.859%,3.933%
CC1CN(CC(=O)NCc2ccccc2)CCN1Cc1nccn1C (stereo not given),-0.229%,-,36.44%,2.165%
O=C(CCn1ccnc1)N1CCCC(n2cncn2)C1 (stereo not given),15.86%,-51.03%,8.397%,0.9128%
COCc1noc(Cc2c(C)nn(C)c2C)n1,-6.03%,8.49%,17.46%,-0.0967%
CCc1nc(C)c(CN2CCOC(CCCC(C)C)C2)[nH]1 (stereo not given),-1.948%,1.385%,27.47%,-5.185%
CN(C)C(=O)CN1CCc2ncnc(NC3CCC3)c2CC1.O=C(O)C(F)(F)F,3.612%,-31.13%,-5.269%,-
CCC1(CO)CCCN(c2ncccc2C#N)C1 (stereo not given),0.9233%,-13.24%,14.96%,1.503%
COc1ccc(C(=O)N2CC(=O)N(Cc3cccs3)CC(O)C2)cc1 (stereo not given),7.6%,-31.88%,-0.6617%,6.293%
CC(C(=O)NCC(C)(C)c1ccc(Br)cc1)n1cncn1 (stereo not given),0%,-13.98%,11.48%,3.661%
Cc1cc(C2CCCN2C(=O)c2cc3c(s2)CCC3)no1 (stereo not given),3.478%,-11.59%,22.77%,0.3164%
CC(=O)Nc1ncc(S(=O)(=O)Nc2ccc(F)cc2)s1,2.51%,-10.29%,11.02%,1.411%
c1cncc(CN2CCCC3(COCCN(c4cnccn4)C3)C2)c1 (stereo not given),-,-,-,5.255%
CCc1ncc(CN(C)C2CCN(C(C)C)CC2)cn1,-,-,-,0.1373%
O=C(O)C(F)(F)F.[H][C@@]12CCN(Cc3cccc(F)c3)[C@]1([H])CC[C@@H](C(=O)N1CCCCO1)O2,2.137%,-30.48%,-18.75%,-
CN(CC1(O)CCCN(Cc2cccc(F)c2F)C1=O)C1CCCCC1 (stereo not given),-3.06%,15.05%,4.528%,-0.09166%
Cn1ccnc1C(=O)N1CCC(Cn2cc(-c3ccsc3)nn2)CC1,-0.9855%,-2.702%,-3.091%,-0.4116%
CCC(=O)N1CCC(Cc2cc(Nc3ncccn3)ncn2)CC1,-3.211%,2.404%,13.41%,2.017%
CN(CCO)C[C@@H]1CN(C(=O)c2cccc(OC(F)F)c2)C[C@@H]1CO,12.64%,-3.501%,59.47%,4.594%
CCCc1n[nH]c(C2CN(C(=O)Cn3ccccc3=O)CCO2)n1 (stereo not given),11.72%,10.54%,18.55%,0.0551%
COc1cc(CNCc2ccco2)ccc1OCCO,-,-,-,4.837%
O=C(Nc1ccc(-c2csnn2)cc1)N1CCCC1,-4.075%,9.735%,19.74%,3.445%
Cc1cc(NC(C)Cn2cccn2)n2nccc2n1 (stereo not given),2.816%,6.847%,27.72%,5.248%

Once more, the final 5:

| structure | Toxoplasma | T. brucei | Leishmania in macrophages | PfKRS1 |
|---|---|---|---|---|
| `CN(CCO)C[C@@H]1CN(C(=O)c2cccc(OC(F)F)c2)C[C@@H]1CO` | 12.64% | -3.501% | 59.47% | 4.594% |
| `CCCc1n[nH]c(C2CN(C(=O)Cn3ccccc3=O)CCO2)n1` (stereo not given) | 11.72% | 10.54% | 18.55% | 0.0551% |
| `COc1cc(CNCc2ccco2)ccc1OCCO` | - | - | - | 4.837% |
| `O=C(Nc1ccc(-c2csnn2)cc1)N1CCCC1` | -4.075% | 9.735% | 19.74% | 3.445% |
| `Cc1cc(NC(C)Cn2cccn2)n2nccc2n1` (stereo not given) | 2.816% | 6.847% | 27.72% | 5.248% |